Results of single-concentration screens

Chains of the proteins cited; added tags and fusions are not shown. Residues count along the entry.
UniProt P9WFT3, whole entry: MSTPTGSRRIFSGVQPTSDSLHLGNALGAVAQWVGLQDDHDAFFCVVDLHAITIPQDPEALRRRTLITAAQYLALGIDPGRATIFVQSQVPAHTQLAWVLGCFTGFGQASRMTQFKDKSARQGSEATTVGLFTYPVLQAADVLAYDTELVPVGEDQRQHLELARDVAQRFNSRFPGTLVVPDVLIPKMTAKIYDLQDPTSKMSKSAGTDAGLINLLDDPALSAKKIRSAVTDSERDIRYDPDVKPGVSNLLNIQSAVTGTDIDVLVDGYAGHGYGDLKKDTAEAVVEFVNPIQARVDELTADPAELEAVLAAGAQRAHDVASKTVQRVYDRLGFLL
UniProt P9WPC5, whole entry: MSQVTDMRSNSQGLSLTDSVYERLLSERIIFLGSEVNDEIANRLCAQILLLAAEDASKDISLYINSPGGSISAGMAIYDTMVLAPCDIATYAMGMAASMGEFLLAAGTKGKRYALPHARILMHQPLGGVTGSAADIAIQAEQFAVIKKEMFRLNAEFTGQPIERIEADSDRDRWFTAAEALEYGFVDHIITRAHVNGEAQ
UniProt P9WPC3, whole entry partner: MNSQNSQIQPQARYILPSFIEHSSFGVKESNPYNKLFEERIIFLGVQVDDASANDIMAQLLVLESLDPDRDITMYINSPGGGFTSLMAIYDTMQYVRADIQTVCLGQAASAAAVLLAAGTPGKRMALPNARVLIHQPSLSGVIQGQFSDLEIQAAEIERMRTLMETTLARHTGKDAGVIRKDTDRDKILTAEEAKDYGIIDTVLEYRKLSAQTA
UniProt Q8IDJ8, 1-583: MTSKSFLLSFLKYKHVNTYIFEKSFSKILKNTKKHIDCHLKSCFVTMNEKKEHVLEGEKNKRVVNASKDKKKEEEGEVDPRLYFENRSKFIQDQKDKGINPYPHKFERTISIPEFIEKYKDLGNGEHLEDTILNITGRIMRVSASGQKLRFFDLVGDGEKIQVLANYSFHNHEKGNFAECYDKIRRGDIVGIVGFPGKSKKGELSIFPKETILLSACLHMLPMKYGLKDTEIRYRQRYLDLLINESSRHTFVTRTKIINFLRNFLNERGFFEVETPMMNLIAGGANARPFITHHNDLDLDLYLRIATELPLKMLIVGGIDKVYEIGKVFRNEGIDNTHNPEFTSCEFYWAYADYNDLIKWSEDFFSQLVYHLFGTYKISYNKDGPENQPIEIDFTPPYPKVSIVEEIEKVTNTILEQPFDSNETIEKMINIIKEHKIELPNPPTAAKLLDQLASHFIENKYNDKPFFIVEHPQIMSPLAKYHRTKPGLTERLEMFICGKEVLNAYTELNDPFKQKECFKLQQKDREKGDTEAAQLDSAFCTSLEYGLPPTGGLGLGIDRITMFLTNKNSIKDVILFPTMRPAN
UniProt P9WNZ1, whole entry: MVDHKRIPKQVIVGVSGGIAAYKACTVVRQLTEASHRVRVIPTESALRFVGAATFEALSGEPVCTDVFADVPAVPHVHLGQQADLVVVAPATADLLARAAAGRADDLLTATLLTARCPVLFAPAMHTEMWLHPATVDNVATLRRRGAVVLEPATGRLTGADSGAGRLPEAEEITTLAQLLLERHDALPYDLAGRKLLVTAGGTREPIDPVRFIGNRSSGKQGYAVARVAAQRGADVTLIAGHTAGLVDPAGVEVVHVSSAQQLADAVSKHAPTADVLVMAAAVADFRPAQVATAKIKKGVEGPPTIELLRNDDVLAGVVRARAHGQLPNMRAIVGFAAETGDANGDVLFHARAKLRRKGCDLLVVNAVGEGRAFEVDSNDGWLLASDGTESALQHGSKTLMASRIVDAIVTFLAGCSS

Data taken from ChEMBL document CHEMBL3988442, “University of Dundee, Small-Polar-MMV Screening Library” (2021).

MtTrpRS: 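Tryptophan-tRNA ligase, Mycobacterium tuberculosis (UniProt P9WFT3). Enzyme assay of tryptophanyl-tRNA synthetase; the read-out is not stated. Tested at 10 µM. Higher most likely means stronger inhibition; the record gives no direction and few retests gave an IC50. Size under these conditions: about 65,000 compounds, about 64 of them at 50% or above in at least one test.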
ClpP1P2: 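Protease assay of ClpP1P2, read by the AMC dye that it sets free. Target: ClpP1P2, Mycobacterium tuberculosis (UniProt P9WPC5 and UniProt P9WPC3). Compounds at 50 µM. Higher reads as stronger inhibition, judged from the few compounds that gave an IC50. Most other retested compounds had strongly negative values. Size under these conditions: about 69,000 compounds, about 10 of them at 50% or above in at least one test.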
Leishmania in macrophages: 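Cell assay of Leishmania donovani living inside macrophages; the read-out is not stated. Compounds at 30 µM. Direction is inferred from retests: higher values go with stronger inhibition. About 69,000 compounds were tested under these conditions; 1.5% (about 1,000) showed 50% or more at least once.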
PfKRS1: 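Enzyme assay of the cytosolic lysyl-tRNA synthetase in 384-well plates, read by luminescence. Target: Lysine-tRNA ligase, Plasmodium falciparum 3D7 (UniProt Q8IDJ8). Tested at 30 µM. Higher reads as stronger inhibition, judged from the few compounds that gave an IC50. About 69,000 compounds were tested under these conditions; 0.071% (about 49) showed 50% or more at least once.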
CoaBC: 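Enzyme assay of CoaBC with a phosphate dye (Biomol Green) read at 650 nm. Target: Coenzyme A biosynthesis protein CoaBC, Mycobacterium tuberculosis (UniProt P9WNZ1). Compounds at 30 µM. Higher reads as stronger inhibition, judged from the few compounds that gave an IC50. Most strong results did not repeat in a second test. About 67,000 compounds were tested under these conditions; 0.06% (about 40) showed 50% or more at least once.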

Values are the deposited “Percent Effect”, in %.
The controls that fix the scale are not given in the record; negative values are as filed.
This is an unselected part of the compounds tested.
A dash means the value is not listed here; it may have been measured.

| # | compound | MtTrpRS | ClpP1P2 | Leishmania in macrophages | PfKRS1 | CoaBC |
|---|---|---|---|---|---|---|
| 1 | `Cc1cc(NC(=O)c2ccc(N3CCOCC3)cc2)[nH]n1` | -20.89% | -6.395% | 8.333% | -0.793% | 0.4032% |
| 2 | `O=C1CO[C@H]2CN(Cc3ccc(F)c(F)c3)C[C@H]2N1` | -6.601% | -10.55% | - | -0.6557% | 3.311% |
| 3 | `c1nc(CSc2nnc(C3CC3)s2)cs1` | -4.722% | 2.95% | 3.868% | 5.916% | 3.226% |
| 4 | `N#Cc1ccc(N2CCC3(CC2)CC(N2CCOCC2)CO3)cc1` (centres undefined) | - | 0.8104% | - | 2.025% | 3.902% |
| 5 | `F[C@@H]1CN(Cc2nccs2)C[C@@H]1OCc1nc2cnccc2[nH]1` | -2.822% | -13.56% | 2.801% | 2.576% | -1.375% |
| 6 | `c1cc2c(cc1Cn1cc(C3CCOC3)nn1)OCO2` (centres undefined) | 10.86% | -8.416% | 20.72% | 5.817% | 2.985% |
| 7 | `O=C1CN(S(=O)(=O)c2ccc(F)cc2)CC(O)CN1CC1CC1` (centres undefined) | - | 7.307% | 3.044% | 4.753% | 4.843% |
| 8 | `CCC(NC(=O)NCc1cccc(N(C)C)n1)c1ccccc1OC` (centres undefined) | 3.119% | -14.64% | -32.99% | 0.9678% | 4.684% |
| 9 | `CC(C)C(=O)NS(=O)(=O)CCc1ccccc1` | -3.592% | 4.495% | 27.21% | 2.212% | 7.337% |
| 10 | `Cc1c(Cl)cc(C(=O)N(CCO)Cc2nccn2C)cc1Cl` | -1.308% | 6.12% | 23.19% | 1.141% | 1.029% |
| 11 | `Cc1nn(C)cc1NC(=O)CC1CCN(CCc2ccccc2)CC1` | -6.011% | -27.37% | 41.67% | 3.356% | 12.12% |
| 12 | `O=C(O)C(F)(F)F.O=C(O)C(F)(F)F.[H][C@@]12COC[C@]1(COCc1ccncc1)CN(Cc1ccccc1OC)C2` | - | - | 3.39% | - | - |
| 13 | `Nc1nc(Sc2cccs2)cc(N2CC[C@H](CO)[C@H](O)C2)n1` | 0.2441% | 11.38% | -9.426% | 1.069% | -4.426% |
| 14 | `OC1(CNCCc2csc(-c3ccncc3)n2)CCCNC1` (centres undefined) | 7.467% | -7.441% | 6.838% | 7.559% | 3.169% |
| 15 | `O=C(c1coc(-c2ccccc2)n1)N1CCCCC1` | -2.714% | -13.58% | 19.13% | 0.8546% | -0.1227% |
| 16 | `NC(=O)c1c[nH]nc1NC(=O)c1ccc(Cl)cc1` | - | 27.2% | -7.412% | 2.187% | 1.35% |
| 17 | `Cc1nc(N)nc(C)c1CC(=O)N1CCCCC1c1cccc(F)c1` (centres undefined) | 1.083% | 4.075% | -5.919% | 9.352% | 15.6% |
| 18 | `CN(C)c1ccc(C(CNS(=O)(=O)c2cccs2)N2CCCC2)cc1` (centres undefined) | 0.4402% | -2.857% | 30.6% | -4.314% | -1.083% |
| 19 | `CC1CN(C)CCN1C(=O)NCCCn1ccnc1` (centres undefined) | -1.769% | 10.47% | 29.03% | 4.167% | 0.2012% |
| 20 | `OCc1ccc(-c2nccn2CCC2=CCCCC2)o1` | 4.113% | -6.611% | 29.18% | 1.816% | 3.871% |
| 21 | `COCCN1CCN(CC(O)c2ccc(OC(F)(F)F)cc2)CC1` (centres undefined) | -10.59% | -33.5% | 52.28% | 1.63% | -6.17% |
| 22 | `Cc1nc(CNC(=O)NC2CCN(c3ncccc3Cl)C2)no1` (centres undefined) | 0.641% | -13.11% | 29.37% | 0.5128% | -1.966% |
| 23 | `Cc1cccc(OCCC(=O)N(C)CC(C)C#N)c1C` (centres undefined) | -0.4946% | -13.43% | -19.92% | 1.741% | 15.79% |
| 24 | `CCc1nc(CCn2ccnc2-c2nccn2C)no1` | 3.846% | -2.019% | 1.483% | 4.622% | 3.629% |
| 25 | `CN1CCC2(CCCN(C(=O)c3cncn3C)C2)CC1` | 0.0969% | -8.925% | - | 0.5961% | - |
| 26 | `O=C(Cc1ccc(F)cc1)N1CCn2cc(Cn3cncn3)nc2C1` | -1.407% | -12.8% | -9.408% | 1.03% | 4.75% |
| 27 | `CSCC(C)N(C)C(=O)CN1CCN(c2ccccn2)CC1` (centres undefined) | 4.08% | -16% | 6.429% | -3.248% | 5.693% |
| 28 | `CC(C)c1nnc(CN2CCN(C(C)c3nc(C4CC4)no3)CC2)o1` (centres undefined) | -3.123% | -12.18% | -9.718% | -1.782% | -5.898% |
| 29 | `Cc1n[nH]c(C)c1C1COCCN1C(=O)c1ccc2c(c1)CCO2` (centres undefined) | -8.155% | -7.74% | 10.16% | -0.4886% | -2.895% |
| 30 | `CN(C)[C@@H]1CCN(c2ncc(F)cn2)[C@H]1Cc1ccncc1` | -1.022% | -5.661% | - | 8.796% | -12.9% |
| 31 | `COCCN1CCC2(CC1)CC(COC)N(c1ncccn1)C2` (centres undefined) | -1.408% | 5.538% | - | 0.2189% | 0.4545% |
| 32 | `O=C(O)C(F)(F)F.O=C(O)C(F)(F)F.[H][C@@]12CCN(Cc3cccc(C#N)c3)[C@@]1([H])CC(=O)N2Cc1ccncc1` | - | - | 32.02% | - | - |
| 33 | `Cc1cccc(CO[C@@H]2CO[C@@]3(CCN(S(=O)(=O)N(C)C)C3)C2)n1` | -10.06% | 0.7267% | - | 4.994% | 1.844% |
| 34 | `CN(C)C(=O)CNC(=O)c1nc(C2CC2)n(-c2ccccc2Cl)n1` | 2.001% | 0.6428% | 22.86% | 0.8526% | 5.524% |
| 35 | `O=C(Nc1ccc2c(ccn2CCN2CCOCC2)c1)c1ccncc1` | -1.248% | 0.3925% | 16% | 7.125% | -3.738% |
| 36 | `CC(O)CN1CCc2[nH]nc(C(c3ccccc3)c3ccccc3)c2C1` (centres undefined) | 4.423% | 6.105% | 20.36% | 1.531% | -5.95% |
| 37 | `Cl.O=C(c1ccnc(C2CCNCC2)c1)N1CCCC1` | - | - | -38.26% | - | - |
| 38 | `[H][C@@]12CS(=O)(=O)C[C@]1([H])N(C(=O)C1CCCC1)CCN2Cc1ccncc1` | - | - | 7.492% | - | - |
| 39 | `Cn1ccc(C(=O)N2CCCC(CNS(C)(=O)=O)C2)cc1=O` (centres undefined) | -3.152% | -3.33% | 2.257% | 2.66% | 6.375% |
| 40 | `CC(=O)NC(C)C(=O)N(Cc1ccc(C)c(C)c1)C1CC1` (centres undefined) | 4.438% | -0.9968% | -3.591% | 3.748% | - |
| 41 | `Cc1nsc(N2CCc3sccc3C2)n1` | -13.39% | 1.77% | 14.81% | 1.705% | -1.499% |
| 42 | `CCN(Cc1cc(F)ccc1Cl)C1CCS(=O)(=O)C1` (centres undefined) | 18.1% | 12.16% | 9.897% | 1.268% | 4.822% |
| 43 | `CN(C)S(=O)(=O)N1CCC(Oc2ccc(C#N)cc2)CC1` | -5.687% | -12.7% | 23.32% | 1.325% | -0.4219% |
| 44 | `[H][C@]12CCCCN1CCC[C@@]2(O)CNCCCOc1cccnc1` | - | - | 13.32% | - | - |
| 45 | `OC1(c2cn(CC3CCN(C4CCSC4)CC3)nn2)CCCC1` (centres undefined) | -5.827% | -17.89% | 3.656% | -0.4572% | -1.279% |
| 46 | `Cl.Clc1ccccc1CN1CCc2nc(C3CCCNC3)ncc2C1` (centres undefined) | - | - | 6.249% | - | - |
| 47 | `Cc1ccc2[nH]c(=O)c(CN(C)Cc3cc(C4CC4)[nH]n3)cc2c1` | 2.183% | -18.86% | -1.096% | 0.4004% | 4.113% |
| 48 | `CC(C)c1cc(C(=O)NCC2CCCN(C(C)C)C2)n(C)n1.Cl` (centres undefined) | - | - | 14.81% | - | - |
| 49 | `CC(C)c1nc(C2CCCN2CCNS(C)(=O)=O)no1` (centres undefined) | 2.601% | -3.763% | -46.32% | 1.276% | 6.148% |
| 50 | `CN(CCCC1CCCO1)C(=O)c1cccc(C#N)c1` (centres undefined) | -1.639% | -8.58% | 5.891% | 7.984% | 1.75% |
| 51 | `CC1CN(Cc2cccnc2)CCN1c1ccc2nncn2n1` (centres undefined) | -0.2921% | -0.4401% | 24.1% | 1.475% | 6.323% |
| 52 | `CC(C)Cc1cc(CN2C[C@H]3CC[C@@H]2CN(Cc2cscn2)C3)n[nH]1` | 1.771% | 3.586% | - | -6.09% | -23.16% |
| 53 | `[H][C@]12CCCCN1CCC[C@@]2(O)CN1CCN(c2cc(C)ccn2)CC1` | - | - | 24.9% | - | - |
| 54 | `O=C1CN(C(=O)C2CN(c3cccc(F)c3)CCO2)CCN1` (centres undefined) | -4.838% | 14.97% | 34.39% | 0.9959% | 1.577% |
| 55 | `CN1CCC(N(C)C(=O)Nc2ccc(Cl)cc2)CC1` | 0.5718% | -8.241% | 8.384% | 1.942% | -3.452% |